# Experimental data reported in the supplement of paper PMC10849652.
# By UniProt entry, the sequences of proteins in these tests, tags left out. Where a name states a change or a piece, a line headed by the entry shows the natural chain unless it says otherwise.
# UniProt Q15723: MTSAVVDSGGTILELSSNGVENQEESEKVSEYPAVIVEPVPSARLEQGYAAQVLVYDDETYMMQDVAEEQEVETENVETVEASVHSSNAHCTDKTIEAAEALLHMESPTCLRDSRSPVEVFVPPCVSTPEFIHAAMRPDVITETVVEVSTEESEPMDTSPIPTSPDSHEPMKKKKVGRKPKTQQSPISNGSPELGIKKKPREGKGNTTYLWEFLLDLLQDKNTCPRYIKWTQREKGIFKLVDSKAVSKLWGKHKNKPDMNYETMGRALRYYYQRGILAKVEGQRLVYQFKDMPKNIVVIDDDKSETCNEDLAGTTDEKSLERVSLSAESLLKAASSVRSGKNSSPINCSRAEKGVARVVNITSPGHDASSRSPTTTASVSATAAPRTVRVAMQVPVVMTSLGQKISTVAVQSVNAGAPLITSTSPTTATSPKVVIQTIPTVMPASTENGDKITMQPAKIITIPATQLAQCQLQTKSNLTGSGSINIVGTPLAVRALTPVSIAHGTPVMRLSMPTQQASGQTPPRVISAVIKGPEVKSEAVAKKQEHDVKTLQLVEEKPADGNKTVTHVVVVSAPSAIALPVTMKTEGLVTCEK
# UniProt P07099: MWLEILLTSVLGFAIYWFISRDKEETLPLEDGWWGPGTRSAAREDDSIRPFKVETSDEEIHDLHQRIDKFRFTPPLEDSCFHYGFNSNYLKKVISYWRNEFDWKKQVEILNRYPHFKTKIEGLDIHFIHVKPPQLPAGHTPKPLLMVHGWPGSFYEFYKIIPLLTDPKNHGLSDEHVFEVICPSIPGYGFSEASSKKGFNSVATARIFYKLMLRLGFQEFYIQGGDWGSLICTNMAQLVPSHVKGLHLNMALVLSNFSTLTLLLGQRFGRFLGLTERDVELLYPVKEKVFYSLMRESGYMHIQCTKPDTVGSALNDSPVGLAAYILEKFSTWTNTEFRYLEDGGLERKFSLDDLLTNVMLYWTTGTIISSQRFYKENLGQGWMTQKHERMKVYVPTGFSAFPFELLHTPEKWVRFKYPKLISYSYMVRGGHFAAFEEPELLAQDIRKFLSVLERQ
# UniProt P07814: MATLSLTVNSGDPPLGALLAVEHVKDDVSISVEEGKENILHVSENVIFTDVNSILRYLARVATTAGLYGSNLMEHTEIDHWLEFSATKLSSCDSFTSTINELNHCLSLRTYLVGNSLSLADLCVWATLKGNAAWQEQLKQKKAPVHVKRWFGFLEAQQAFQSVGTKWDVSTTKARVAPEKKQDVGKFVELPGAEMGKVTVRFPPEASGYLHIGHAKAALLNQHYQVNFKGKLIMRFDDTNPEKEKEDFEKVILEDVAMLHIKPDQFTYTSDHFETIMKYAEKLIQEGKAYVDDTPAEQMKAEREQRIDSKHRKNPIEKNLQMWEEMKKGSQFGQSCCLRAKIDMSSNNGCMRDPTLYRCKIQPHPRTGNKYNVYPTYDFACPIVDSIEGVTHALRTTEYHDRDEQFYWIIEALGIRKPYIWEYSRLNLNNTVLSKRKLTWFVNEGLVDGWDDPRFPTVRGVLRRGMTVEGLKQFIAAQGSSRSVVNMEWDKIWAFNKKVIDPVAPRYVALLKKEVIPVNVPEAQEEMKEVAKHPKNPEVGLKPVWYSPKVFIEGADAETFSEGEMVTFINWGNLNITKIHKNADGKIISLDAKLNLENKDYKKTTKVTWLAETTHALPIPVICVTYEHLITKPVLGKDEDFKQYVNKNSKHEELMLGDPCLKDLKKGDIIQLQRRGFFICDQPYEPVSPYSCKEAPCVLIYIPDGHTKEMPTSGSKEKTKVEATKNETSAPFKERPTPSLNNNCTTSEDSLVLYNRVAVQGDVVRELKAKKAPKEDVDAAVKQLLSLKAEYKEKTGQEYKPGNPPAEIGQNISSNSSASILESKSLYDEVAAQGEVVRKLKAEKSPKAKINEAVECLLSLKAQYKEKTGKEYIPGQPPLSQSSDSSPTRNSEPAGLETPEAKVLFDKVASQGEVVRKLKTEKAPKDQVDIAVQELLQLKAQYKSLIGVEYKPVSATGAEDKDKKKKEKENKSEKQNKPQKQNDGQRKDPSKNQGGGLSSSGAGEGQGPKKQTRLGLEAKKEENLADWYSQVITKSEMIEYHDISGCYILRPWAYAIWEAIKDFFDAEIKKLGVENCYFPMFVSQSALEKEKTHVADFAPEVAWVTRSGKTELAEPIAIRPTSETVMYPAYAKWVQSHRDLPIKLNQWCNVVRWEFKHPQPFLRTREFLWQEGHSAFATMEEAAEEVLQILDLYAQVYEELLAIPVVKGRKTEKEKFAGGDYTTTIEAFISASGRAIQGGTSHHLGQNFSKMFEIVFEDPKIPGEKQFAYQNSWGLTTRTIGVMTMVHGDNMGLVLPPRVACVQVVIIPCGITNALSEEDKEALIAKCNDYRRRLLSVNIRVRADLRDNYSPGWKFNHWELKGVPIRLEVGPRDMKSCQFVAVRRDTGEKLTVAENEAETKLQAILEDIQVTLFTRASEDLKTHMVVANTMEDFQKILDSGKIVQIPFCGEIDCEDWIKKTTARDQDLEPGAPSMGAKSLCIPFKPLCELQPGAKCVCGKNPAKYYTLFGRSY
# UniProt Q8TE02: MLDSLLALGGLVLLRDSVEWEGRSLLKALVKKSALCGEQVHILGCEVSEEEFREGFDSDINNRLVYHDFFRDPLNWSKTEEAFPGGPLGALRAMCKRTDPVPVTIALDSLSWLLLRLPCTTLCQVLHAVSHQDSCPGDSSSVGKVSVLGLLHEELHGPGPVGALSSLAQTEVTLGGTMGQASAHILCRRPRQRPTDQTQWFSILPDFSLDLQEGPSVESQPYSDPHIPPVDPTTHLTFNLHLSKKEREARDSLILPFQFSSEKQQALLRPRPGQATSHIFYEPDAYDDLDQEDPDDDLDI
# UniProt O75821, whole entry, looked up: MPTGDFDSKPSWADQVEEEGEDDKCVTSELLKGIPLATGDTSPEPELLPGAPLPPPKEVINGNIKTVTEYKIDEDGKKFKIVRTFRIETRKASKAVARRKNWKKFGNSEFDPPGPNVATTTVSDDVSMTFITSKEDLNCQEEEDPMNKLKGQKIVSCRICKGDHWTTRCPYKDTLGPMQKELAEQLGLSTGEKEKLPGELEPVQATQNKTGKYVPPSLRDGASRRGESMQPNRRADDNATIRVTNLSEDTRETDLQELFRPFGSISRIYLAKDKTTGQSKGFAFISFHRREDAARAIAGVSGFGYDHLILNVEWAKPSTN
# UniProt P55199: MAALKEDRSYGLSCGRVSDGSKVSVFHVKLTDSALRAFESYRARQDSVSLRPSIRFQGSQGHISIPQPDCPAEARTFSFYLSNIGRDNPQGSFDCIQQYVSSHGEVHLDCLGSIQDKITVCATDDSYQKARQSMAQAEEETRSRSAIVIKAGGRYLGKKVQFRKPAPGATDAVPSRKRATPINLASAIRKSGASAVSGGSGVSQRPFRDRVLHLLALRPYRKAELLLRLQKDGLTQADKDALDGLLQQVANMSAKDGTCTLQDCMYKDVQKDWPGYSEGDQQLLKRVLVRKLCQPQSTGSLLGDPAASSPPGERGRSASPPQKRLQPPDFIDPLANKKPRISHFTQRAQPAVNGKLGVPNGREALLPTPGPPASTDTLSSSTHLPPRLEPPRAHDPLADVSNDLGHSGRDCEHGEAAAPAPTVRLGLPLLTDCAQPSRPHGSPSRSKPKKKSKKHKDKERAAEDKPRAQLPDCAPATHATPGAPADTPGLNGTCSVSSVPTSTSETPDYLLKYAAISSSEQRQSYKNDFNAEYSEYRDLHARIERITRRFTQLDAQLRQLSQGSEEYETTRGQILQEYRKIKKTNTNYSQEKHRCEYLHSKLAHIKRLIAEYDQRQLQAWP
# UniProt Q9H9T3: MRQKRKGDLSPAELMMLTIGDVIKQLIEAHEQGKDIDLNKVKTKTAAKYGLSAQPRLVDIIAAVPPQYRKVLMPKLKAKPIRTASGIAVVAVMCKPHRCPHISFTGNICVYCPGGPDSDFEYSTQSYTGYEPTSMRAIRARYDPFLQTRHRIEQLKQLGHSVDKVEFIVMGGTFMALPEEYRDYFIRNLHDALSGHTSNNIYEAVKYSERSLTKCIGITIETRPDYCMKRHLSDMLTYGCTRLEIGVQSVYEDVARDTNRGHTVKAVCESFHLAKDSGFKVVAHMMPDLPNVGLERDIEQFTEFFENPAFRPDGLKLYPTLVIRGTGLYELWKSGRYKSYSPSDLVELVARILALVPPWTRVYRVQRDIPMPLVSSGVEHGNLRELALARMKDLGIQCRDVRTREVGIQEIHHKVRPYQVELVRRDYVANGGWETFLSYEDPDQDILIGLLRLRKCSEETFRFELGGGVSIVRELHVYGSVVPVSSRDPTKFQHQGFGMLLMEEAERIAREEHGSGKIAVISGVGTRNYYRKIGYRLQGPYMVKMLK
# UniProt O15372, whole entry, looked up: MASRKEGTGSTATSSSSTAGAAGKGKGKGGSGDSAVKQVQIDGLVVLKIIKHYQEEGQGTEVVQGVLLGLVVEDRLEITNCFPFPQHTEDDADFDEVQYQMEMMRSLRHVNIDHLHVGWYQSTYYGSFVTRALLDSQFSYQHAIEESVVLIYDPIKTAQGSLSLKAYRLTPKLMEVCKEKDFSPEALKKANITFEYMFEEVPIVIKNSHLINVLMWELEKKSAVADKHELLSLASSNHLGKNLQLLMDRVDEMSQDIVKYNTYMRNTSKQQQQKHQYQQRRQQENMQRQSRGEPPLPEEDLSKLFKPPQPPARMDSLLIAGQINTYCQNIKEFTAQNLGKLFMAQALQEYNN
# UniProt P13929, whole entry, looked up: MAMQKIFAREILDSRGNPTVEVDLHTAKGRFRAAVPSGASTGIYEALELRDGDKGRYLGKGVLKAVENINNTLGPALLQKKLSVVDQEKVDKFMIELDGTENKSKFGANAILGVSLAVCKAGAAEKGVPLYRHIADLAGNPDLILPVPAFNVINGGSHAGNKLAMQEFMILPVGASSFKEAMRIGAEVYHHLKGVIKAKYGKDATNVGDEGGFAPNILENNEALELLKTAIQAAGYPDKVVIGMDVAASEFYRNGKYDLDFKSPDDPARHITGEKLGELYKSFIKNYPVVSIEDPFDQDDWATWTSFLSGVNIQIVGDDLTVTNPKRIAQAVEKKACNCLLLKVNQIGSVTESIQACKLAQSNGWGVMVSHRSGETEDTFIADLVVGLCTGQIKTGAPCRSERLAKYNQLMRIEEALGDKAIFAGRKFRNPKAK
# UniProt P49770: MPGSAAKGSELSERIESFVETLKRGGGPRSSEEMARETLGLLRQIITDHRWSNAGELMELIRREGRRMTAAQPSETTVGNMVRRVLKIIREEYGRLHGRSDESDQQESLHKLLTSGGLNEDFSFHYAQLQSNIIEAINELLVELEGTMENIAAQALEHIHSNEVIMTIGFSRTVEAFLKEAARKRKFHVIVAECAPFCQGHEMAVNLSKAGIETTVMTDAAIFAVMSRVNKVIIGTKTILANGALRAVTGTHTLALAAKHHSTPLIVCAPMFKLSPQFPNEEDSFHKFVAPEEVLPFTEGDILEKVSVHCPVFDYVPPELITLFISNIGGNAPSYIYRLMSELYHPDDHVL
# UniProt O14638, whole entry, looked up: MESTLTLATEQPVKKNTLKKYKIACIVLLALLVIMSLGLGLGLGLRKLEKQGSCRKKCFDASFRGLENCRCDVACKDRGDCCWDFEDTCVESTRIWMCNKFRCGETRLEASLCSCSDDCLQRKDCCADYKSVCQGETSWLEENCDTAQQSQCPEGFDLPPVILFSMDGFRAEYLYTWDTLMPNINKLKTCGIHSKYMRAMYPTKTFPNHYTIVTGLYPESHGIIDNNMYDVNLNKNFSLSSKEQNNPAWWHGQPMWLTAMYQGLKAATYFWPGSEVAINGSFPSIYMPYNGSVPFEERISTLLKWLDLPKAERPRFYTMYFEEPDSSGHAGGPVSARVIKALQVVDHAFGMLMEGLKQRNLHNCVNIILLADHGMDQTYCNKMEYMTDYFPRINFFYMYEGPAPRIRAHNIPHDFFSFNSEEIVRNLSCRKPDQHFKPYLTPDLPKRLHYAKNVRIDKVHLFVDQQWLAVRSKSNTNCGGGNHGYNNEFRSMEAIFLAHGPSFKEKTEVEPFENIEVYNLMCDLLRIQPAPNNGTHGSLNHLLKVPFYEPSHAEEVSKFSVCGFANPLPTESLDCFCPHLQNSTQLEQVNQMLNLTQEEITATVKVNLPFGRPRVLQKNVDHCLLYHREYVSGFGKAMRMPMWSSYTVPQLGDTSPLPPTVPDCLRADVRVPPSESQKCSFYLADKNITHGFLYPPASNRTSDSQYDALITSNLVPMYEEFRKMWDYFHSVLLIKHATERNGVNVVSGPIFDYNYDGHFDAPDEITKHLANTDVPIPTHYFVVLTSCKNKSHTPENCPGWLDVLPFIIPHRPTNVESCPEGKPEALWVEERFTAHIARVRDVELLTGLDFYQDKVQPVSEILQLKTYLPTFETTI
# The list shows a part of the results.
# Key:
# Assay in all cases: log2 fold change, soluble protein after heating vs DMSO (PISA); higher = thermal stabilisation; K562 lysate, 10 uM; active = over 0.2 and 3.5 SD of the protein, either way, in both replicates (recomputed)
# [1] = compound: CS(=O)(=O)CCNCc1ccc(-c2ccc3ncnc(Nc4ccc(OCc5cccc(F)c5)c(Cl)c4)c3c2)o1 [lapatinib]
# Outline: (§1)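 Soluble protein was defined as the supernatant remaining after 21,000xg for 90 min, following pooling of heated aliquots and adjustment to 0.5% NP-40 at 4°C. Before that, crude K562 extract at 1 mg/mL protein in PBS pH 7.4 with 1 mM MgCl2 was treated with 10 μM compound for 30 min and heated for 3 min across 48°C-58°C. Quantification used TMTpro 16plex LC-MS/MS with channel sums equalised, and values are log-two fold changes in thermal stability relative to solvent controls from duplicates.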
# [2] = compound: CS(=O)(=O)N1CCN(Cc2cc3nc(-c4cccc5[nH]ncc45)nc(N4CCOCC4)c3s2)CC1 [pictilisib]
# Outline: as §1
# [3] = compound: C[C@@H](Oc1cc(-c2cnn(C3CCNCC3)c2)cnc1N)c1c(Cl)ccc(F)c1Cl [crizotinib]
# Outline: as §1
# [4] = compound: C[C@H](C1=CC=C(C=C1)C(=O)NC2=C3C=CNC3=NC=C2)N
# Outline: as §1
# [5] = compound: C[C@H](Nc1ncnc2nc[nH]c12)c1cc2cccc(Cl)c2c(=O)n1-c1ccccc1 [duvelisib]
# Outline: as §1
# [6] = compound: Cc1cc(Nc2cc(CN3CCOCC3)c3nc(C)c(Cc4ccc(Cl)cc4F)n3n2)n[nH]1 [gandotinib]
# Outline: as §1
# [7] = compound: Cc1cc(Nc2cc(N3CCN(C)CC3)nc(Sc3ccc(NC(=O)C4CC4)cc3)n2)n[nH]1 [tozasertib]
# Outline: as §1
# [8] = compound: Cc1ccc(-n2nc(C(C)(C)C)cc2NC(=O)Nc2ccc(OCCN3CCOCC3)c3ccccc23)cc1 [doramapimod]
# Outline: as §1
# [9] = compound: Cc1ccc(NC(=O)c2ccc(CN3CC[C@H](N(C)C)C3)c(C(F)(F)F)c2)cc1Nc1nccc(-c2cncnc2)n1 [bafetinib]
# Outline: as §1
# [10] = compound: Cc1cccc(CC(=O)N2CCc3c2ccc(-c2cn(C)c4ncnc(N)c24)c3F)n1
# Outline: as §1
# [11] = compound: Cc1cn(-c2cc(NC(=O)c3ccc(C)c(Nc4nccc(-c5cccnc5)n4)c3)cc(C(F)(F)F)c2)cn1 [nilotinib]
# Outline: as §1
# [12] = compound: Cc1nc(Nc2n[nH]c3c2CN(C(=O)N[C@H](CN(C)C)c2ccccc2)C3(C)C)c2sccc2n1
# Outline: as §1
# [13] = compound: Cc1nc(Nc2ncc(C(=O)Nc3c(C)cccc3Cl)s2)cc(N2CCN(CCO)CC2)n1 [dasatinib]
# Outline: as §1
# [14] = compound: Cc1ncc(-c2ccnc(Nc3ccc(S(C)(=O)=O)cc3)n2)n1C(C)C
# Outline: as §1
# [15] = compound: Cn1cc(-c2ccc3c(c2)CCN3C(=O)Cc2cccc(C(F)(F)F)c2)c2c(N)ncnc21
# Outline: as §1
# [16] = compound: Cn1cc(CNCC2CCN(c3ncc(C(=O)NO)cn3)CC2)c2ccccc21 [quisinostat]
# Outline: as §1
# [17] = compound: Cn1cncc1[C@@](N)(c1ccc(Cl)cc1)c1ccc2c(c1)c(-c1cccc(Cl)c1)cc(=O)n2C [tipifarnib]
# Outline: as §1
# [18] = compound: NC(=O)Nc1cc(-c2cccc(F)c2)sc1C(=O)N[C@H]1CCCNC1
# Outline: as §1
# [19] = compound: NC(=O)c1cnc(N[C@@H]2CCCC[C@@H]2N)nc1Nc1cccc(-n2nccn2)c1
# Outline: as §1
# [20] = compound: NC1(c2ccc(-c3nc4ccn5c(=O)[nH]nc5c4cc3-c3ccccc3)cc2)CCC1
# Outline: as §1
Target,log2 fold change [1],log2 fold change [2],log2 fold change [3],log2 fold change [4],log2 fold change [5],log2 fold change [6],log2 fold change [7],log2 fold change [8],log2 fold change [9],log2 fold change [10],log2 fold change [11],log2 fold change [12],log2 fold change [13],log2 fold change [14],log2 fold change [15],log2 fold change [16],log2 fold change [17],log2 fold change [18],log2 fold change [19],log2 fold change [20]
ELF2 (UniProt Q15723),active: 0.256,inactive: 0.039,inactive: -0.085,inactive: 0.033,inactive: 0.072,inactive: -0.046,inactive: -0.033,inactive: -0.042,inactive: -0.119,inactive: -0.075,inactive: 0.032,inactive: -0.007,inactive: -0.105,inactive: 0.065,inactive: 0.068,inactive: 0.026,inactive: -0.043,inactive: -0.035,inactive: -0.02,inactive: 0.032
ELF1 (UniProt P32519),inactive: 0.016,inactive: 0.012,inactive: -0.013,inactive: 0.061,inactive: 0.003,inactive: -0.059,inactive: -0.061,inactive: 0.01,inactive: -0.01,inactive: -0.055,inactive: 0.014,inactive: 0.015,inactive: 0.005,inactive: 0.05,inactive: 0.048,inactive: -0.01,inactive: -0.012,inactive: 0.004,inactive: -0.006,inactive: -0.026
EPHX1 (UniProt P07099),inactive: -0.019,inactive: -0.025,inactive: -0.014,inactive: -0.026,inactive: -0.01,inactive: 0.045,inactive: 0.017,inactive: 0.002,inactive: -0.027,inactive: -0.005,inactive: -0.018,inactive: 0.018,inactive: 0.021,inactive: 0.005,inactive: 0.023,inactive: -0.076,inactive: -0.023,inactive: 0.001,inactive: -0.019,inactive: -0.006
EMG1 (UniProt Q92979),inactive: -0.007,inactive: 0.004,inactive: -0.063,inactive: -0.044,inactive: 0.029,inactive: 0.026,inactive: -0.031,inactive: 0.027,inactive: -0.035,inactive: 0.014,inactive: 0.023,inactive: -0.009,inactive: -0.029,inactive: 0.019,inactive: 0.022,inactive: -0.025,inactive: 0.058,inactive: 0.019,inactive: -0.006,inactive: -0.032
EPRS (UniProt P07814),inactive: -0.005,inactive: 0.006,inactive: -0.042,inactive: 0.015,inactive: 0.031,inactive: -0.069,inactive: 0.012,inactive: 0.02,inactive: 0.003,inactive: 0.019,inactive: 0.005,inactive: -0.002,inactive: -0.039,inactive: -0.01,inactive: 0.039,inactive: 0,inactive: 0.011,inactive: 0.039,inactive: 0.002,inactive: -0.026
ELP5 isoform 4 (UniProt Q8TE02),inactive: 0.035,inactive: 0.007,inactive: -0.022,inactive: -0.072,inactive: -0.005,inactive: 0.091,inactive: -0.065,inactive: 0.072,inactive: -0.014,inactive: 0.077,inactive: 0.006,inactive: 0.007,inactive: -0.025,inactive: -0.032,inactive: 0.022,inactive: -0.093,inactive: -0.041,inactive: 0.009,inactive: 0.008,inactive: -0.026
EIF3G (UniProt O75821),inactive: -0.015,inactive: 0.019,inactive: 0.005,inactive: -0.021,inactive: 0.019,inactive: 0.009,inactive: 0.01,inactive: -0.019,inactive: 0.006,inactive: -0.004,inactive: 0,inactive: -0.008,inactive: -0.013,inactive: -0.006,inactive: -0.014,inactive: -0.023,inactive: 0.012,inactive: -0.001,inactive: -0.01,inactive: 0.019
ELOA (UniProt Q14241),inactive: -0.045,inactive: -0.029,inactive: -0.071,inactive: -0.082,inactive: -0.012,inactive: 0.111,inactive: -0.022,inactive: 0.027,inactive: 0.09,inactive: 0.094,inactive: 0.01,inactive: 0.013,inactive: -0.049,inactive: -0.003,inactive: 0.017,inactive: -0.143,inactive: -0.021,inactive: 0.045,inactive: -0.015,inactive: -0.019
ELL (UniProt P55199),inactive: 0.056,inactive: 0.009,inactive: -0.003,inactive: -0.049,inactive: 0.055,inactive: -0.029,inactive: 0.017,inactive: 0.019,inactive: -0.051,inactive: -0.066,inactive: -0.021,inactive: 0,inactive: -0.125,inactive: 0.028,inactive: 0.002,inactive: -0.095,inactive: 0,inactive: -0.016,inactive: 0.05,inactive: 0.01
ELP3 (UniProt Q9H9T3),inactive: -0.007,inactive: -0.036,inactive: -0.006,inactive: -0.01,inactive: 0.012,inactive: 0.008,inactive: 0.002,inactive: -0.006,inactive: -0.002,inactive: 0.005,inactive: -0.002,inactive: -0.008,inactive: -0.009,inactive: -0.019,inactive: 0.018,inactive: -0.01,inactive: -0.002,inactive: 0.026,inactive: -0.004,inactive: -0.003
EMC10 (UniProt Q5UCC4),inactive: -0.066,inactive: -0.051,inactive: 0.019,inactive: -0.148,inactive: 0.031,inactive: 0.127,inactive: 0.039,inactive: -0.013,inactive: 0.01,inactive: 0.185,inactive: 0.019,inactive: -0.097,inactive: -0.001,inactive: 0.076,inactive: -0.046,inactive: 0.027,inactive: -0.054,inactive: -0.052,inactive: -0.008,inactive: -0.027
EIF3H (UniProt O15372),inactive: -0.008,inactive: 0.009,inactive: -0.011,inactive: -0.013,inactive: 0.012,inactive: -0.002,inactive: -0.013,inactive: 0.015,inactive: 0.097,inactive: 0.008,inactive: -0.007,inactive: 0.008,inactive: 0.032,inactive: -0.017,inactive: -0.009,inactive: -0.065,inactive: 0.004,inactive: -0.004,inactive: 0.008,inactive: -0.027
ERCC2 (UniProt P18074),inactive: 0.002,inactive: -0.031,inactive: -0.015,inactive: 0.053,inactive: -0.017,inactive: -0.114,inactive: -0.025,inactive: 0.018,inactive: -0.034,inactive: -0.051,inactive: -0.036,inactive: -0.016,inactive: -0.022,inactive: 0.029,inactive: 0.039,inactive: -0.057,inactive: -0.02,inactive: 0.049,inactive: 0.009,inactive: -0.016
ENO3 (UniProt P13929),inactive: 0.002,inactive: -0.135,inactive: -0.06,inactive: -0.306,inactive: 0.041,inactive: 0.214,inactive: 0.01,inactive: 0.088,inactive: 0.077,inactive: 0.128,inactive: 0.041,inactive: -0.013,inactive: -0.15,inactive: 0.022,inactive: 0.144,inactive: 0.047,inactive: 0.016,inactive: -0.02,inactive: 0.002,inactive: -0.011
EIF2B2 (UniProt P49770),inactive: -0.038,inactive: -0.021,inactive: -0.006,inactive: 0.02,inactive: 0.01,inactive: -0.093,inactive: 0.025,inactive: 0.004,inactive: -0.014,inactive: -0.01,inactive: 0.017,inactive: 0.005,inactive: -0.038,inactive: -0.019,inactive: -0.005,inactive: 0.003,inactive: -0.025,inactive: -0.013,inactive: -0.018,inactive: 0.006
ENPP3 (UniProt O14638),inactive: -0.015,inactive: -0.029,inactive: -0.005,inactive: -0.018,inactive: 0.007,inactive: 0.027,inactive: -0.053,inactive: -0.08,inactive: -0.005,inactive: 0.024,inactive: 0.099,inactive: -0.07,inactive: 0.034,inactive: 0.133,inactive: 0.008,inactive: -0.051,inactive: 0.026,inactive: 0.006,inactive: 0.022,inactive: 0.053

# Record cards, as listed above. Values in the order: log2 fold change [1] | log2 fold change [2] | log2 fold change [3] | log2 fold change [4] | log2 fold change [5] | log2 fold change [6] | log2 fold change [7] | log2 fold change [8] | log2 fold change [9] | log2 fold change [10] | log2 fold change [11] | log2 fold change [12] | log2 fold change [13] | log2 fold change [14] | log2 fold change [15] | log2 fold change [16] | log2 fold change [17] | log2 fold change [18] | log2 fold change [19] | log2 fold change [20]
# ELOA (UniProt Q14241) is listed as inactive: -0.045 | inactive: -0.029 | inactive: -0.071 | inactive: -0.082 | inactive: -0.012 | inactive: 0.111 | inactive: -0.022 | inactive: 0.027 | inactive: 0.09 | inactive: 0.094 | inactive: 0.01 | inactive: 0.013 | inactive: -0.049 | inactive: -0.003 | inactive: 0.017 | inactive: -0.143 | inactive: -0.021 | inactive: 0.045 | inactive: -0.015 | inactive: -0.019
# ENPP3 (UniProt O14638) is listed as inactive: -0.015 | inactive: -0.029 | inactive: -0.005 | inactive: -0.018 | inactive: 0.007 | inactive: 0.027 | inactive: -0.053 | inactive: -0.08 | inactive: -0.005 | inactive: 0.024 | inactive: 0.099 | inactive: -0.07 | inactive: 0.034 | inactive: 0.133 | inactive: 0.008 | inactive: -0.051 | inactive: 0.026 | inactive: 0.006 | inactive: 0.022 | inactive: 0.053
